Test: Effects of CNA and CLA on body composition (diet feeding)
Assay type: in vivo
Conditions: female ICR mice, 0.3% in diet, 2 weeks
Description: Female ICR mice (4-week-old) and semi-purified diets (TD94060, 99% basal mix) were purchased from Harlan Sprague Dawley (Madison, Wis.) and Harlan Teklad (Madison, Wis.), respectively. CLA was obtained from Natural Lipids Ltd AS, Hovdebygda, Norway; its composition was 88.7% CLA (c9, t11/t9, c11, 41.9%; t10, c12, 43.5%; t9, t11/10, t12, 1.5%; others, 1.8%) with the remainder as oleic acid, 5.6%; palmitic acid, 1.4%; and linoleic acid, 0.5%. CNA was kindly provided by the US Food and Drug Administration; it was 98.6% CNA (c10, t12, 42.3%; t11, c13, 48.0%; t10, t12/t11, t13, 5.1%; others, 3.2%) with the remainder as unreacted NA. CLA or CNA was added to diets at the expense of corn oil to maintain 5.5% fat. Diet was stored at −20° C. until use. Mice were housed individually in a windowless room with a 12-h light-dark cycle in strict accordance to guidelines established by the Research Animal Resources Center of University of Wisconsin-Madison. Diet and water, available ad libitum, were freshly provided three times per week.
After a 5 day adaptation period, mice were randomly separated into 3 groups and fed control diet, diet supplemented with 0.3% CLA, or diet supplemented with 0.3% CNA for 2 weeks. 0.3% of diet CLA is a sub-optimal dose for CLA's effects on body composition.
Results are mean±S.E. (n=6).

Q: Which “total feed intake per group” value does the source give for “Conjugated linoleic acid [CLA, reference compound]” here?
A: The value was 51.0 g.

Q: For conjugated nonadecadienoic acid [CNA], which “total feed intake per group” value is on record?
A: Its value is 47.1 g.
